From US20240325382A1, “COMPOSITIONS AND METHODS FOR TREATING ANEMIA ASSOCIATED WITH A RIBOSOMAL DISORDER” (Disc Medicine, Inc., priority 2021, published 2024)
Some results were stated once for a whole list of compounds, not compound by compound.

System: RPS19 mRNA
Assay: RPS19 mRNA expression by qRT-PCR in TF-1 stable cell lines
Format: cell-based, Human
Settings: TF-1 stable lines, doxycycline-induced shRNA, by day 4

| Substance | decrease of RPS19 mRNA expression |
| --- | --- |
| shRNA #a: lentivirus-encoded, doxycycline-inducible shRNA targeting RPS19, GAGATCTGGACAGAATCGC (SEQ ID NO: 1) | > 85% |
| shRNA #b: lentivirus-encoded, doxycycline-inducible shRNA targeting RPS19, GCTTGCTCCCTACGATGAGAA (SEQ ID NO: 2) | > 85% |
